# Results of single-concentration screens

Sequences of proteins named here, by UniProt entry; tags and fusion partners are left off. Residues count along the entry.
UniProt Q8IDJ8, 1-583: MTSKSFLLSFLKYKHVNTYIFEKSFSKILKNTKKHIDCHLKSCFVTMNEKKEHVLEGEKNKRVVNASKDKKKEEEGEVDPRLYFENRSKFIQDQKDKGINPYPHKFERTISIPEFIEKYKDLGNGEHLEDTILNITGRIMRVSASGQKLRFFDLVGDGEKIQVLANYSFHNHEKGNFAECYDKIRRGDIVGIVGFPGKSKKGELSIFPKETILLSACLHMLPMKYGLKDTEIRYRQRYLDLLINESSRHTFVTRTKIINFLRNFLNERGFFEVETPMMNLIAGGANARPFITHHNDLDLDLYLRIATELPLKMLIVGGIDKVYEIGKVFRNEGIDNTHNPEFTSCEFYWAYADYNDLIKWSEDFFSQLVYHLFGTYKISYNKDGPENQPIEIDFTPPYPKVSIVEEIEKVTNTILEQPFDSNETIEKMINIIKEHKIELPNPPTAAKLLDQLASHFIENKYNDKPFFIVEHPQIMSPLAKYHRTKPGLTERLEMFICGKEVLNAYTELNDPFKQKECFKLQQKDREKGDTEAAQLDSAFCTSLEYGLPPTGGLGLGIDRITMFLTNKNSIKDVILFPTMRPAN
UniProt Q4DA54, 1-478: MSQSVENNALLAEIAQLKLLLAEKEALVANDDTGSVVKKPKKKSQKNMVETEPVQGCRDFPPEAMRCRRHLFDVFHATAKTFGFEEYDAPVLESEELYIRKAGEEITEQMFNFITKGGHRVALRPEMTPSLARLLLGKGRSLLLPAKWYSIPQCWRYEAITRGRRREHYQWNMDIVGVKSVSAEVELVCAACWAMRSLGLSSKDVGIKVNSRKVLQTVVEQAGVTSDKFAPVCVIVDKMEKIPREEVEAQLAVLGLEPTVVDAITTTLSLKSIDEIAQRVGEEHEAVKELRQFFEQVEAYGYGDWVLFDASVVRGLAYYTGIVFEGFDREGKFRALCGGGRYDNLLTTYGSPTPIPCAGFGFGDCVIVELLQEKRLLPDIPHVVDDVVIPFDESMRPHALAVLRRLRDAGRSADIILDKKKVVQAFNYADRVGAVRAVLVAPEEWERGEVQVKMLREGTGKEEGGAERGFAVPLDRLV

Leishmania in macrophages: 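Cell assay of Leishmania donovani living inside macrophages; the read-out is not stated. Tested at 30 µM. Direction is inferred from retests: higher values go with stronger inhibition. About 69,000 compounds were tested under these conditions; 1.5% (about 1,000) showed 50% or more at least once.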
T. brucei: 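Whole-parasite assay of Trypanosoma brucei over 72 hours; the read-out is not stated. Tested at 30 µM. Higher reads as stronger inhibition (inferred: compounds with an IC50 in retests scored well above the rest). Values scatter widely below zero; nearly all retest evidence comes from the higher of the two concentrations used. Size under these conditions: about 64,000 compounds, about 940 of them at 50% or above in at least one test.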
Toxoplasma: 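Assay of Toxoplasma gondii numbers, read through their beta-galactosidase reporter with a colour substrate. Compounds at 10 µM. The record gives no direction; the compounds picked for IC50 retests had high values, so higher reads as fewer parasites. Of about 67,000 compounds tested this way, about 260 (0.38%) reached 50% or more in at least one test.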
PfKRS1: 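Lysine-tRNA ligase, Plasmodium falciparum 3D7 (UniProt Q8IDJ8). Enzyme assay of the cytosolic lysyl-tRNA synthetase in 384-well plates, read by luminescence. Tested at 30 µM. Direction is inferred from only a few compounds that gave an IC50; most scored high, so higher reads as stronger inhibition. About 69,000 compounds were tested under these conditions; 0.071% (about 49) showed 50% or more at least once.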
TcHisRS: 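Enzyme assay of histidyl-tRNA synthetase; the read-out is not stated. Target: Histidine-tRNA ligase, Trypanosoma cruzi CL Brener (UniProt Q4DA54). Concentration: 30 µM. Direction is inferred from retests: higher values go with stronger inhibition. About 69,000 compounds were tested under these conditions; 0.045% (about 31) showed 50% or more at least once.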

The filed quantity is “Percent Effect” (%). The record does not define 0% and 100%; most values in the screen are far below 50% and negative numbers occur (in some assays of this library far below -100). This is an unselected part of the compounds tested. Two or more numbers in one place are separate tests of the same structure; such repeats can differ widely. A dash means the value is not listed here; it may have been measured.

| SMILES | Leishmania in macrophages | T. brucei | Toxoplasma | PfKRS1 | TcHisRS |
|---|---|---|---|---|---|
| `O=C(Cc1ccc(F)cc1)N1CCn2c(Cn3cncn3)cnc2C1` | 5.226 | -55.83 | -8.637 | -3.426 | 1.961 |
| `O=C(COCC(=O)N(c1ccccc1)c1ccccc1)N1CCCCC1` | 6.849 | -32.45 | 16.47 | 0.4573 | 6.186 |
| `O=C(CNC(=O)c1cnccn1)Nc1ncc[nH]1` | 21.21 | -32.25 | -20.58 | 4.219 | 4.094 |
| `Cc1noc(CN2CCN(C(=O)c3ccccn3)CC2)n1` | 16.94 | 14.43 | -6.138 | 11.01 | -7.563 |
| `CCC1CN(C(=O)c2ccccc2N(C)C)CCN1C(C)C` (centres unmarked) | -6.27 | -27.36 | 8.981 | 1.473 | 8.911 |
| `CCN1CCOC(CNCc2ccccc2OCc2cccnc2)C1` (centres unmarked) | 29.22 | - | 1.799 | -2.034 | 8.455 |
| `O=C([C@@H]1CCO[C@@H]2CCN(Cc3ccc(F)cc3)C[C@H]21)N1CCCCO1` | - | - | - | 4.976 | 0 |
| `CCn1c(C2CCCN2Cc2noc(C(C)(C)C)n2)nc2ccccc21` (centres unmarked) | -45.45 | -6.111 | -20.26 | -1.231 | 6.468 |
| `Cc1noc(-c2ccc(N[C@H]3CCCCNC3=O)nc2)n1` | 18.61 | -2.179 | -2.185 | 4.188 | 5.319 |
| `O=C(c1cnccn1)N1CCN(Cc2cscn2)CC1` | 10.6 | - | 8.603 | 0.04578 | 8.455 |
| `CCN1CCN(S(=O)(=O)N2CCCCCC2)[C@H]2CS(=O)(=O)C[C@H]21` | - | - | - | -0.9939 | -5.263 |
| `CC1CCN(C(=O)C2(Cc3cc(C4CCOC4)no3)CCNCC2)CC1` (centres unmarked) | - | - | - | 2.014 | 19.92 |
| `O=C(O)C(F)(F)F.[H][C@@]12COC[C@]1([H])[C@@H](OCC1CCOCC1)CN2Cc1ccsc1` | 11.76 | -77.28 | -10.84 | - | - |
| `CN(C)C(=O)c1nc2c(s1)CCCN2Cc1ccccc1` | -4.882 | - | -8.482 | 1.532 | 6.952 |
| `O=C(NCC(Cc1cccc(F)c1)N1CCCC1=O)c1ccc[nH]c1=O` (centres unmarked) | 6.149 | -13.45 | -4.002 | 0.7001 | 8.434 |
| `COc1ncccc1C(=O)N1CCC(CNC(C)=O)CC1` | 19.67 | -8.592 | -1.322 | 4.36 | 5.394 |
| `O=C(NCc1nc(C2CC2)no1)N1CCOC(c2ccccc2F)C1` (centres unmarked) | -19.85 | -41.89 | 0.08878 | 2.555 | 9.036 |
| `CCc1ncc2c(n1)CN(Cc1nc(-c3ccoc3)no1)CC2` | 3.598 | -14.08 | 0.8309 | 0.6615 | 9.827 |
| `CC1CN(Cc2cnn(C)c2)CCN1c1ccc2nncn2n1` (centres unmarked) | 13.16 | 10.78 | -3.396 | 1.246 | 1.149 |
| `Cc1cc(NC(=O)NCC(O)c2ccc(Cl)cc2Cl)n(C)n1` (centres unmarked) | 16.3 | -4.56 | -8.892 | 3.165 | -1.901 |
| `Cc1ccc(CN(C)C(=O)CCNS(=O)(=O)c2cccnc2)cc1` | 4.613 | -4.355 | 13.6 | 8.509 | 8.333 |
| `Cn1cnc2c1C(C(=O)N1CCCC1)N(CC1CC1)CC2` (centres unmarked) | - | - | - | 3.166 | 4.598 |
| `Fc1ccc(C2CN(c3ncnc4[nH]ncc34)CCO2)cc1` (centres unmarked) | 48.39 | -18.9 | -17.59 | 2.172 | 3.727 |
| `[H][C@@]12CS(=O)(=O)C[C@]1([H])N(Cc1ccc(CCC)o1)CCN2C(=O)C(C)C` | 26.93 | 22.73 | 5.211 | - | - |
| `COc1ccc(-c2cccc(-c3ccn(CCCN(C)C)n3)c2)nn1` | 9.978 | - | 12.38 | 0.1501 | 1.932 |
| `N[C@@H]1c2ccccc2C2(CCN(c3ncccc3C(F)(F)F)CC2)[C@H]1O` | -34.09 | -16.35 | 9.94 | 4.554 | 7.317 |
| `COc1ccccc1CCNC(=O)N(C)C(C)CS(C)(=O)=O` (centres unmarked) | 15.54 | -87.63 | 6.993 | 0.1571 | 11.52 |
| `COCCNC(=O)NCCS(=O)(=O)N1CCN(c2cccc(C)c2)CC1` | 12.15 | 14.39 | 4.027 | 4.13 | 2.041 |
| `O=C(NCc1csc(Br)c1)N1CCOCC1` | 24.01 | - | 3.893 | 0.582 | 4.956 |
| `O=C1CCCN1CCN1CC[C@@]2(O)CCN(c3ncccn3)C[C@H]2C1` | - | - | - | 4.404 | -1.01 |
| `CC(C)(C)c1ccc2c(c1)CCN2C(=O)c1[nH]c(=O)[nH]c(=O)c1N` | 3.698 | 7.695 | -6.132 | 6.153 | 2.105 |
| `Cc1cc(C)nc(NC2CCc3nc(C)nn3C2)n1` (centres unmarked) | -19.42 | 5.093 | 1.136 | 5.004 | -1.053 |
| `Cc1nc(NCCSc2cnn[nH]2)c2c(C)noc2n1` | 8.809 | -7.205 | 5.352 | -4.627 | 2.222 |
| `c1cnn(CC2CN(Cc3noc(C4CC4)n3)CCO2)c1` (centres unmarked) | -3.579 | -27.58 | 5.112 | 9.75 | 1.887 |
| `CS(=O)(=O)N1CCCC(C(=O)Nc2cnn(Cc3ccc(Cl)cc3)c2)C1` (centres unmarked) | 13.16 | 33.46 | -12.61 | 2.371 | -2.312 |
| `Cc1ccnc(C2CN(c3ncccn3)C2)n1` | 36.09 | -22.23 | -3.53 | -0.8679 | -10.61 |
| `Cn1nc(-c2cccs2)cc1[C@H]1CN2CC[C@H]1C[C@@H]2CNS(C)(=O)=O` | - | - | - | 3.368 | -2.488 |
| `Cc1ccc(C(=O)NC2CCN(C)CC2)cc1N(C)S(C)(=O)=O` | 20.52 | -6.86 | 10.85 | 0.9079 | 3.571 |
| `COCCCN1CC2(CCN(C(=O)c3ccc(=O)n(C)c3)CC2)CC1=O` | 44.84 | -5.978 | -8.489 | -0.7988 | -5.025 |
| `CCOc1ccc(Br)cc1-c1cc(N)[nH]n1` | - | - | - | -4.871 | 15 |
| `Cc1cc(C)c(S(=O)(=O)Nc2c(C)nc(N3CCCC3)nc2C)cc1C` | 24.95 & 18.05 | 14.67 | -1.673 | 2.886 | 2.062 |
| `O=C(O)C(F)(F)F.O=C(O)C(F)(F)F.O=C(O)C(F)(F)F.c1cncc(C[C@H]2[C@H](N3CCOCC3)CCN2Cc2cccs2)c1` | 6.979 | 17.19 | 3.325 | - | - |
| `CS(=O)(=O)N1CCOCC2(CN(Cc3ccccn3)CCO2)C1` (centres unmarked) | - | - | - | 1.684 | -0.4975 |
| `CCOC(=O)CNC(=O)NCc1cc(C)n(-c2ccccc2OC)c1C` | 0.232 & 30.13 | -16.53 | 10.06 | 4.538 | 2.439 |
| `Cl.Fc1ccc(Cc2cnc(C3CCCN3)cn2)cc1` (centres unmarked) | -14.96 & -5.645 | 1.793 | 19.77 | - | - |
| `O=C(c1cscn1)N1CCc2ncnc(-c3ccncc3)c2CC1` | 15.49 | -51.91 | -15.48 | 4.994 | 7.778 |
| `COc1ncc(C(=O)NCc2ccc(Br)cc2)cn1` | 25.76 | -16.28 | -0.8218 | 4.882 | -3.415 |
| `COCCN(C)c1cnn(C)c(=O)c1Br` | -42.96 | -27.15 | 3.926 | 2.296 | 9.453 |
| `COc1cccc(-c2noc(CN3CCOCC3C)n2)c1` (centres unmarked) | 12.8 | -3.955 | -3.464 | -0.2111 | 5.233 |
| `[H][C@@]12CN(Cc3ccccc3Cl)CC[C@]1([H])N(C(C)=O)C[C@H]2c1ccsc1` | -12.3 & -17.81 | 19.4 | 22.38 | - | - |
| `CCN1CCC(CC(=O)N2CCN(c3ccccc3OC)CC2C)CC1` (centres unmarked) | -9.803 | - | -21.42 | -5.393 | -8.696 |
| `O=S(=O)(CCCN1CCOC(Cn2cccn2)C1)c1ccccc1` (centres unmarked) | 8.687 | -16.45 | 2.605 | 2.753 | 1.058 |
| `COc1ccc2c(OCC(=O)NCC(F)(F)F)ccnc2c1` | 35.63 | -9.479 | -29.49 | 6.649 | 4.878 |
| `Cc1ncsc1C(=O)N1CCCC1c1c(C)nn(C)c1C` (centres unmarked) | 3.368 | -30.76 | 3.557 | 1.387 | 1.657 |
| `Cn1cnc2c1C(COCC1CC1)CN(C(=O)c1cscn1)C2` (centres unmarked) | - | - | - | 3.967 | 10.75 |
| `Cc1noc([C@@]23CCO[C@@H]2CCN(C(=O)C2CCOCC2)C3)n1` | - | - | - | 7.356 | 5.946 |
| `Cc1cc(CN(C)C(=O)c2ccc(F)cc2Br)no1` | 8.953 | -45.5 | -16.62 | 3.001 | 1.527 |
| `O=C(O)C(F)(F)F.[H][C@@]12COC[C@@H](CC(=O)N3CCOCC3)[C@]1([H])CN(C(=O)c1cccnc1)C2` | 33.07 | -63.17 | 4.273 | - | - |
| `Cc1ccc2cc(CN(C)Cc3ncc[nH]3)c(=O)[nH]c2c1` | -29.28 | - | -17.97 | 0.358 | 0 |

For reference, 3 entries once more:

SMILES,Leishmania in macrophages,T. brucei,Toxoplasma,PfKRS1,TcHisRS
Cc1cc(CN(C)C(=O)c2ccc(F)cc2Br)no1,8.953,-45.5,-16.62,3.001,1.527
Cn1cnc2c1C(C(=O)N1CCCC1)N(CC1CC1)CC2 (centres unmarked),-,-,-,3.166,4.598
[H][C@@]12CS(=O)(=O)C[C@]1([H])N(Cc1ccc(CCC)o1)CCN2C(=O)C(C)C,26.93,22.73,5.211,-,-

Source: ChEMBL document CHEMBL3988442, “University of Dundee, Small-Polar-MMV Screening Library” (2021).